Experimental data as given in PMC12866778.
These are yes or no findings as the source states them, for the method shown. In cells and extracts the contact can be indirect. Some entries that bind do so weakly or less than the wild type. For some of these results: Tags and fused reporters may be left off the sequences shown.

The chains behind the UniProt entries cited, without tags or fusion partners.
UniProt Q9Z127: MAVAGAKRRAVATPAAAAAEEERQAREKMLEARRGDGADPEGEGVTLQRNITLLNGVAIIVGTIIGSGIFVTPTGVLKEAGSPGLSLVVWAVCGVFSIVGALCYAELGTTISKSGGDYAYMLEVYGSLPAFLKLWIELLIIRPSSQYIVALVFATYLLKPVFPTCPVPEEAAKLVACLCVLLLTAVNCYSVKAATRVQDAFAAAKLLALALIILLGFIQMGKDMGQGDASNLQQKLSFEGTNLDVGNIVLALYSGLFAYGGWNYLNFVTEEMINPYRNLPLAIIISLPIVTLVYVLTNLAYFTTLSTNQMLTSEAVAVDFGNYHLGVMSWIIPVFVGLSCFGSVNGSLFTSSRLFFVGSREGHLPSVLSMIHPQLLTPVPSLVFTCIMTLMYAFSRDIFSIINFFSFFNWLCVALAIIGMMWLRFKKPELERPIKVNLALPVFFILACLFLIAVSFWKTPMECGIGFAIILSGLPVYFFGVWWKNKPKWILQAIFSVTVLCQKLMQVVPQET

Columns and labels:
[1] = target: T1, PGAM5-HA (full-length PGAM5, HA-tagged) in RAW264.7 cells (UniProt Q8BX10); assay: co-IP; RAW264.7 whole-cell lysate incubated with primary antibody (anti-FLAG or anti-HA) overnight at 4 °C, protein A/G magnetic beads 6 h, irrelevant IgG as control, western blot; for PGAM5-HA and NDUFV1 also cells with SLC7A5 knock-down
T1 sequence: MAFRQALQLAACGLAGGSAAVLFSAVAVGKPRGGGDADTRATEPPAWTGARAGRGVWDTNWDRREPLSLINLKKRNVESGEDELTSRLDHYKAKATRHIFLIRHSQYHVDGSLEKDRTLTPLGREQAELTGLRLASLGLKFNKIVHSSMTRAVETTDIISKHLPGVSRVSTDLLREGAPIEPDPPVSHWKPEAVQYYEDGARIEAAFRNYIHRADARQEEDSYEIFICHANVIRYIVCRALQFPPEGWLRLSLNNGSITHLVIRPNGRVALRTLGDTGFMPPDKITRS

[2] = target: SLC7A5-FLAG (solute carrier family seven member 5/L-type amino acid transporter 1, FLAG-tagged) (UniProt Q9Z127); assay: as above
[3] = target: SLC7A5-FLAG (solute carrier family seven member 5/L-type amino acid transporter 1, FLAG-tagged) (UniProt Q9Z127); assay: co-IP; anti-FLAG co-IP from cytosol and mitochondrial fractions of RAW264.7 cells (Mitochondria Isolation Kit), blot for HA and FLAG
[4] = target: SLC7A5-FLAG (solute carrier family seven member 5/L-type amino acid transporter 1, FLAG-tagged) (UniProt Q9Z127); assay: proximity ligation; Duolink PLA on fixed, permeabilised RAW264.7 cells transfected with SLC7A5-FLAG and PGAM5-HA (antibodies to FLAG and HA); also co-stained with MitoTracker; also under leucine deficiency by the text

SLC7A5-FLAG (solute carrier family seven member 5/L-type amino acid transporter 1, FLAG-tagged) (from UniProt Q9Z127 1-512)
binding [1]: binds

B1: endogenous PGAM5 (phosphoglycerate mutase 5) of RAW264.7 cells (protein, UniProt Q8BX10 1-288)
chain: T1 sequence
binding [2]: binds

B2: PGAM5-HA (full-length PGAM5, HA-tagged) in RAW264.7 cells (protein, UniProt Q8BX10 1-288)
chain: T1 sequence
binding [3]: binds | binding [4]: binds
